This test deals with BDF1 mice, P388 leukemia ip, median survival T/C. In words: NCI In Vivo Anticancer Drug Screen. Data for tumor model P388 Leukemia (intraperitoneal) in B6D2F1 (BDF1) mice. Particulars: T/C endpoint: median survival time, higher T/C = longer survival. A digest of the protocol:
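Transplantable tumour in mice; compound vs vehicle dosing; survival scored; ratio of treated to control reported.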

[1] abbreviates: dose: 200.0 mg/kg/injection, schedule: Q01DX009 (ip), vehicle: saline with Tween-80.
Where [2] appears, read: dose: 400.0 mg/kg/injection, schedule: Q01DX009 (ip), vehicle: saline with Tween-80.
The mark [3] stands for this setting: dose: 50.0 mg/kg/injection, schedule: Q01DX009 (ip), vehicle: saline with Tween-80.
The mark [4] stands for this setting: dose: 100.0 mg/kg/injection, schedule: Q01DX009 (ip), vehicle: saline with Tween-80.

Structures are written as SMILES. The list is a part of this screen's results and no random one: it is rich in T/C values a quarter to a half above the control, in often repeated tests (any T/C) and in doses without a T/C. Other doses and runs of a compound stand elsewhere. T/C gives the treated animals as a percentage of the vehicle group. Some doses have a count of surviving animals in place of a T/C: the source holds a T/C of zero for them, seemingly a mark for toxic or unscored doses. Some survivor counts are full or nearly so, which does not show that the dose was tolerated: survival well below the control is almost never listed, so the zero probably covers shortened survival too. Counts of survivors are from the toxicity check (mostly the fifth day) where no day follows; animals may have died later. Schedules are NCI's codes, taken here to give the interval after Q, in days (D) or hours (H), and the number of doses after X. Some entries hold several experiments; the results are listed from low to high. For survival time, this PubChem deposit counts one and a half times the control or more as active, and values a quarter to a half above the control carry no call in these data; other NCI protocols may use other cut-offs. Some T/C values carry the count of animals alive at the toxicity check (mostly the fifth day); where none is given, no animal had died by that day. Non-standard residues stand in square brackets, D forms with d. Residues, ends and D or L forms follow the SMILES beside them. *: point of attachment. NMeY = CN[CH](Cc1ccc(O)cc1)C(=O)O; Bn = c1ccc(C*)cc1

As for `CCC(C)C1NC(=O)C(NC(=O)c2c3nc4c(C(=O)NC5C(=O)NC(C(C)CC)C(=O)N6CCCC6C(=O)N(C)CC(=O)N(C)C(C(C)C)C(=O)OC5C)cc([N+](=O)[O-])c(C)c4oc-3c(C)c(=O)c2N)C(C)OC(=O)C(C(C)C)N(C)C(=O)CN(C)C(=O)C2CCCN2C1=O` (stereo not given), the T/C (dose: 0.15 mg/kg/injection, schedule: Q04DX003 (ip), vehicle: saline + alcohol) is 125 % of control; the T/C (dose: 2.4 mg/kg/injection, schedule: Q04DX003 (ip), vehicle: saline + alcohol) is 125 % of control; the T/C (dose: 25.0 micrograms/kg/injection, schedule: Q01DX009 (ip), vehicle: saline + alcohol) was 147 % of control.

Regarding `NNC(=S)N/N=C/c1ccc([N+](=O)[O-])s1`, the survivor count (dose: 400.0 mg/kg/injection, schedule: Q01DX009 (ip), vehicle: Klucel (hydroxypropylcellulose) (HPC)) was 5 of 6.

In the case of `O=C(Nc1cccc(Cl)c1)C1CCCC1=Nc1cccc(Cl)c1` (stereo not given), the survivor count runs as follows: under setting [1], 6 of 6; under setting [2], 6 of 6.

On to `NNC(=O)[C@H]1CC[C@H]1C(=O)NN`, for which, for the setting “dose: 50.0 mg/kg/injection, schedule: Q01DX009 (ip), vehicle: saline”, the T/C was 130 % of control. Besides, the survivor count reads like this: (dose: 133.0 mg/kg/injection, schedule: Q01DX009 (ip), vehicle: saline) 6 of 6; (dose: 200.0 mg/kg/injection, schedule: Q01DX009 (ip), vehicle: saline) 4 of 6 and 6 of 6; (dose: 300.0 mg/kg/injection, schedule: Q01DX009 (ip), vehicle: saline) 5 of 6.

As to `Cc1cc(=O)[nH]c2c1ccc1[nH]c(=O)cc(C)c12`, the survivor count (dose: 400.0 mg/kg/injection, schedule: Q01DX001 (ip), vehicle: Klucel (hydroxypropylcellulose) (HPC)) is listed as 6 of 6.

As to `COc1cc2c(cc1Oc1c(Oc3c(O)c(OC)cc4c3C(CC(C)C)N(C)CC4)c(OC)cc3c1C(CC(C)C)N(C)CC3)C(CC(C)C)N(C)CC2` (stereo not given), the survivor count (dose: 100.0 mg/kg/injection, schedule: Q01DX010 (ip), vehicle: saline) is on record as 6 of 6.

For `CNC(Cc1ccc(OCc2ccccc2)cc1)C(=O)NC(CC(C)C)C(=O)OC` (stereo not given) (H-[NMeY](Bn)-Leu-OMe; configuration not given here), where the note is “dose: 400.0 mg/kg/injection, schedule: Q04DX003 (ip), vehicle: saline”, the survivor count is recorded as 2 of 6.

Consider `O=C(NC1CCCCC1)OCC#CC#CCOC(=O)NC1CCCCC1`, for which, under “dose: 400.0 mg/kg/injection, schedule: Q04DX003 (ip), vehicle: Klucel (hydroxypropylcellulose) (HPC)”, the survivor count is 4 of 6.

Turning to `CC(=O)C(C)(NCc1ccccc1)c1ccccc1` (stereo not given), the survivor count (dose: 135.0 mg/kg/injection, schedule: Q01DX001 (ip), vehicle: saline) is reported as 6 of 6. Besides, under “dose: 200.0 mg/kg/injection, schedule: Q01DX001 (ip), vehicle: saline”, the T/C is 129 and 131 % of control.

Turning to `COc1cccc(N2C(=O)CSC2=S)c1`, the survivor count under setting [2] was 3 of 6.

With `O=[n+]1c2ccccc2n([O-])c2ccccc21.[Cl][Ni][Cl]`, where the note is “dose: 25.0 mg/kg/injection, schedule: Q04DX003 (ip), vehicle: saline with Tween-80”, the T/C was 138 % of control.

Turning to `Cc1ccccc1-c1cc2ccccc2c(N)n1`, the survivor count under setting [3] was 0 of 6, the survivor count under setting [4] is recorded as 0 of 6 and the survivor count under setting [1] is recorded as 0 of 6.

For `O=CNc1c(Cl)c(Cl)c2c(c1Cl)Cc1cc(Cl)ccc1-2`, the survivor count is on record as 6 of 6 (dose: 1.5 mg/kg/injection, schedule: Q01DX009 (ip), vehicle: DMSO); 6 of 6 (dose: 6.0 mg/kg/injection, schedule: Q01DX009 (ip), vehicle: DMSO); 5 of 6 (dose: 25.0 mg/kg/injection, schedule: Q01DX009 (ip), vehicle: DMSO); 5 of 6 (dose: 50.0 mg/kg/injection, schedule: Q01DX009 (ip), vehicle: DMSO); 1 of 6 (dose: 100.0 mg/kg/injection, schedule: Q01DX009 (ip), vehicle: DMSO); 1 of 6 (dose: 200.0 mg/kg/injection, schedule: Q01DX009 (ip), vehicle: DMSO). The survivor count (dose: 400.0 mg/kg/injection, schedule: Q01DX009 (ip), vehicle: DMSO) is recorded as 0 of 6.

Consider `ClCC1CNC(c2ccccc2)O1` (stereo not given), for which the survivor count (dose: 50.0 mg/kg/injection, schedule: Q04DX003 (ip), vehicle: saline with Tween-80) is given as 1 of 6.

As to `O=C(OC[P+](c1ccccc1)(c1ccccc1)c1ccccc1)c1ccccc1`, the T/C by setting is: (dose: 6.25 mg/kg/injection, schedule: Q01DX009 (ip), vehicle: saline) 135 % of control; (dose: 12.5 mg/kg/injection, schedule: Q01DX009 (ip), vehicle: saline) 130 and 145 % of control; (dose: 25.0 mg/kg/injection, schedule: Q01DX009 (ip), vehicle: saline) 134 % of control.

In the case of `Cc1ccc2c(c1)N=C(Nc1ccccc1)N=S2(C)=O` (stereo not given), the T/C under setting [3] is 140 % of control [5 of 6 alive]. Besides, under setting [1], the survivor count is on record as 5 of 6.

For the compound `O=C1c2cc(Cl)ccc2-c2c(NC(=O)C(Cl)Cl)cc(Cl)cc21`, the survivor count is 6 of 6 under setting [4], 5 of 6 under setting [1] and 6 of 6 under setting [2].

For the compound `COC(=O)c1cc(=O)nc(NN=C2CCCCC2)s1`, the survivor count (dose: 200.0 mg/kg/injection, schedule: Q01DX005 (ip), vehicle: saline with Tween-80) is 2 of 5.

Take `Cc1ccc2c(c1)C(=O)CC=C(C(=O)O)N2`: the T/C runs as follows: under setting [4], 129 % of control; under setting [2], 129 % of control.

Values taken from PubChem BioAssay AID328 (DTP/NCI, 2004).
